The supplement of paper PMC10849652
The other results are listed elsewhere or left out.

The chains behind the UniProt entries cited, without tags or fusion partners. Where a name states a change or a piece, a line headed by the entry shows the natural chain unless it says otherwise.
UniProt P09661: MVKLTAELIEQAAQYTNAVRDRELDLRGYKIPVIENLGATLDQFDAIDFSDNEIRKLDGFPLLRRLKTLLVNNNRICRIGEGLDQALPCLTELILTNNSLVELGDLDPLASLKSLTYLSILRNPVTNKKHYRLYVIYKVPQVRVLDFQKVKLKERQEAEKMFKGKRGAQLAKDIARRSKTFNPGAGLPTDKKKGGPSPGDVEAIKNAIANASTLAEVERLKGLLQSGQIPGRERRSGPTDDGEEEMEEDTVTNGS
UniProt Q8NDV3: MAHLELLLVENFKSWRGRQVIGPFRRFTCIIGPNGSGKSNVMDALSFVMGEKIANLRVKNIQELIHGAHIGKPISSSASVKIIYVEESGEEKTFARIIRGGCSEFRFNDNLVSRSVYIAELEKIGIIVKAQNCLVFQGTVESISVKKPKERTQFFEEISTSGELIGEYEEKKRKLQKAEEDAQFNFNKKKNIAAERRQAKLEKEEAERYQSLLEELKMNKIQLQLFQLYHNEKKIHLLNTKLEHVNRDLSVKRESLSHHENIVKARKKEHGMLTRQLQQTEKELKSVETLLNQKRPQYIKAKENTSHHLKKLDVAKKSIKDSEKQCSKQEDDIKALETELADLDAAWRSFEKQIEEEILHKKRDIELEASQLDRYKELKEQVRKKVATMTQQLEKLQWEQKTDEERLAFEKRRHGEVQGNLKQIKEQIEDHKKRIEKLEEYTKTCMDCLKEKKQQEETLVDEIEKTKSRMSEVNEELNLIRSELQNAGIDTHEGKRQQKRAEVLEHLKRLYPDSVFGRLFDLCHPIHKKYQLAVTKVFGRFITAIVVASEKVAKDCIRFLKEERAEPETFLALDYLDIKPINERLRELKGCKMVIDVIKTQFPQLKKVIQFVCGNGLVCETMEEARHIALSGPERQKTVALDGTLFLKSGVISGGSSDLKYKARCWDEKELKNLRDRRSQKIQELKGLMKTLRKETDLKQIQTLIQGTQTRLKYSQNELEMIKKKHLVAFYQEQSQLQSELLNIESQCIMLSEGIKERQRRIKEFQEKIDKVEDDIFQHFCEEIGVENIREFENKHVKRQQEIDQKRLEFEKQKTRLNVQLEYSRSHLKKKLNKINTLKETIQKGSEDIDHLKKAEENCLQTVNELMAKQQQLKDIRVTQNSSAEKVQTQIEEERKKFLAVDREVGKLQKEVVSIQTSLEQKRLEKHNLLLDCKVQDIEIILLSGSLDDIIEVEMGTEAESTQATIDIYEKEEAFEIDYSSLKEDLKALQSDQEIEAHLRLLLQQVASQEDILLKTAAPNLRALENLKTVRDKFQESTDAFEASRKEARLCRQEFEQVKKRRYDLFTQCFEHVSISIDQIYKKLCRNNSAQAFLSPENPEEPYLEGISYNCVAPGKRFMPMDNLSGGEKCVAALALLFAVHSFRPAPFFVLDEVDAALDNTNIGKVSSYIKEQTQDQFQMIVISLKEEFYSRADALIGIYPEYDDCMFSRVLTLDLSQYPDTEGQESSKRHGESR
UniProt Q96SB8: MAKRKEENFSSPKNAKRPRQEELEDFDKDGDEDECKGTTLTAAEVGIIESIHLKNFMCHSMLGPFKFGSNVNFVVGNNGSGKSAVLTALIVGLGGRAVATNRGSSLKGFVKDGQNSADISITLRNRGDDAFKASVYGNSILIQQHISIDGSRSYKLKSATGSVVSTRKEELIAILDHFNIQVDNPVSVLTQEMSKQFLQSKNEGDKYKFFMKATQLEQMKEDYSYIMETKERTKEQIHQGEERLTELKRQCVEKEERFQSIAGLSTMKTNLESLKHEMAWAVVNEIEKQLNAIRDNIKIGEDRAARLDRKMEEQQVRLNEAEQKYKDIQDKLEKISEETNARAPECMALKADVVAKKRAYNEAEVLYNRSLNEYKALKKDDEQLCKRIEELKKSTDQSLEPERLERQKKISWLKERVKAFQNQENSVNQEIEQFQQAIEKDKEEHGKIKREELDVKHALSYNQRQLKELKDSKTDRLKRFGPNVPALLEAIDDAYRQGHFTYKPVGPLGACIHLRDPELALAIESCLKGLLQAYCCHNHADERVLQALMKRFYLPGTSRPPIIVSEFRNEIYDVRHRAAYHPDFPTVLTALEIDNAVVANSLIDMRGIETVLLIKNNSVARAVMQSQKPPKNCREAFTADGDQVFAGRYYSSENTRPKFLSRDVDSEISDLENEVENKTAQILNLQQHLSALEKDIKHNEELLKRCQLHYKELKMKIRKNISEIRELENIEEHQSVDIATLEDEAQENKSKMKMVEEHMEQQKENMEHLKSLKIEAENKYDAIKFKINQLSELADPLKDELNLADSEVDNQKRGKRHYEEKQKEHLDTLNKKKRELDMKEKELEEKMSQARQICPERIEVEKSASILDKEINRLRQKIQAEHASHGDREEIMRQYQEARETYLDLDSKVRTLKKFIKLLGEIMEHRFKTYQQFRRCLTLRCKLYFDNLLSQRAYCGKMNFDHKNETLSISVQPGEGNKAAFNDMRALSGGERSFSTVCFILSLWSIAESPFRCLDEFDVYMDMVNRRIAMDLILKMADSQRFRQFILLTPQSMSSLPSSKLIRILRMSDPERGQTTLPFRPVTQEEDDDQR
UniProt Q96KF7: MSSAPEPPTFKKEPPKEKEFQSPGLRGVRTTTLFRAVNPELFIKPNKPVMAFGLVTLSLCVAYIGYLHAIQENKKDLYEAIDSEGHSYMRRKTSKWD
UniProt Q14BN4: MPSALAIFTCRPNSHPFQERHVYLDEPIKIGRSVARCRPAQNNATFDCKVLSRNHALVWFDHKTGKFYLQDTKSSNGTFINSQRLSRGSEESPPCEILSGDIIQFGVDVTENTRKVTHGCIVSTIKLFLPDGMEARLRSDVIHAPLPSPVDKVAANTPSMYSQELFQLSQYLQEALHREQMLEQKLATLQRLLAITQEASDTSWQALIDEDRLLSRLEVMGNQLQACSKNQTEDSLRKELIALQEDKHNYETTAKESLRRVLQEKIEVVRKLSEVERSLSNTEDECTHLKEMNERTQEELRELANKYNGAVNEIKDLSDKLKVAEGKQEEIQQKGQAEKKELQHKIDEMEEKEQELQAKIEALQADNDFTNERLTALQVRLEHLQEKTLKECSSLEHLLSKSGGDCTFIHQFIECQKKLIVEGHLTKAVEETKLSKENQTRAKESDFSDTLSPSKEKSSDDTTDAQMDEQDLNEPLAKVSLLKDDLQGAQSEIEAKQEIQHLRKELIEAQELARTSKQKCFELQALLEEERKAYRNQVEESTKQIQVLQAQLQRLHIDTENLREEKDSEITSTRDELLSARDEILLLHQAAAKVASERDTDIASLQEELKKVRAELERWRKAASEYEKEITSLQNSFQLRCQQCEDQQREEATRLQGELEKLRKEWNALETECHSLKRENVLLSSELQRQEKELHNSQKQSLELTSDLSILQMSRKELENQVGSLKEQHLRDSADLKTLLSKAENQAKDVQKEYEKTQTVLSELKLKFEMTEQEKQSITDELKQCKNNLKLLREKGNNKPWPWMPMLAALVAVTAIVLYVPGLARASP
UniProt P62318, whole entry, looked up: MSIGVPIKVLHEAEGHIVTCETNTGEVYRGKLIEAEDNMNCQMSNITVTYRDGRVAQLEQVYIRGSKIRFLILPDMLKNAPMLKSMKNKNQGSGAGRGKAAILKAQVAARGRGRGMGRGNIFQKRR
UniProt P62306, whole entry, looked up: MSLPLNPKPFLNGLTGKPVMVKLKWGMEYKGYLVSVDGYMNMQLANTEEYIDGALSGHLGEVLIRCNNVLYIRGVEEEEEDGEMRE
UniProt Q13573: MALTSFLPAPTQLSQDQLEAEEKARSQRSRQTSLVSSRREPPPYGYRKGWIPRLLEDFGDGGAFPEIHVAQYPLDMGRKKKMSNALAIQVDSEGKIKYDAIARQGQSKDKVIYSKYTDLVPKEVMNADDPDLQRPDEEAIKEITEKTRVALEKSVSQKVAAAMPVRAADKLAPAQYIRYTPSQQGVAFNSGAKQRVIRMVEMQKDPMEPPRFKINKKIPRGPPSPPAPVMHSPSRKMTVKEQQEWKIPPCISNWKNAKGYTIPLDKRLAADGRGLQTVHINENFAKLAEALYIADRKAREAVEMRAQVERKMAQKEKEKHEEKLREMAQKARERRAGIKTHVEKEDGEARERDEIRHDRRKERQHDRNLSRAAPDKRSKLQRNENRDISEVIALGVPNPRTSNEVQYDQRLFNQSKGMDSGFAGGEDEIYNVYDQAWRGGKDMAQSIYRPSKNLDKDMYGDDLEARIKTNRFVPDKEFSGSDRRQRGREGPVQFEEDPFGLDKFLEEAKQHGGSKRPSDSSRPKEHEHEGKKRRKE
UniProt O95347, whole entry, looked up: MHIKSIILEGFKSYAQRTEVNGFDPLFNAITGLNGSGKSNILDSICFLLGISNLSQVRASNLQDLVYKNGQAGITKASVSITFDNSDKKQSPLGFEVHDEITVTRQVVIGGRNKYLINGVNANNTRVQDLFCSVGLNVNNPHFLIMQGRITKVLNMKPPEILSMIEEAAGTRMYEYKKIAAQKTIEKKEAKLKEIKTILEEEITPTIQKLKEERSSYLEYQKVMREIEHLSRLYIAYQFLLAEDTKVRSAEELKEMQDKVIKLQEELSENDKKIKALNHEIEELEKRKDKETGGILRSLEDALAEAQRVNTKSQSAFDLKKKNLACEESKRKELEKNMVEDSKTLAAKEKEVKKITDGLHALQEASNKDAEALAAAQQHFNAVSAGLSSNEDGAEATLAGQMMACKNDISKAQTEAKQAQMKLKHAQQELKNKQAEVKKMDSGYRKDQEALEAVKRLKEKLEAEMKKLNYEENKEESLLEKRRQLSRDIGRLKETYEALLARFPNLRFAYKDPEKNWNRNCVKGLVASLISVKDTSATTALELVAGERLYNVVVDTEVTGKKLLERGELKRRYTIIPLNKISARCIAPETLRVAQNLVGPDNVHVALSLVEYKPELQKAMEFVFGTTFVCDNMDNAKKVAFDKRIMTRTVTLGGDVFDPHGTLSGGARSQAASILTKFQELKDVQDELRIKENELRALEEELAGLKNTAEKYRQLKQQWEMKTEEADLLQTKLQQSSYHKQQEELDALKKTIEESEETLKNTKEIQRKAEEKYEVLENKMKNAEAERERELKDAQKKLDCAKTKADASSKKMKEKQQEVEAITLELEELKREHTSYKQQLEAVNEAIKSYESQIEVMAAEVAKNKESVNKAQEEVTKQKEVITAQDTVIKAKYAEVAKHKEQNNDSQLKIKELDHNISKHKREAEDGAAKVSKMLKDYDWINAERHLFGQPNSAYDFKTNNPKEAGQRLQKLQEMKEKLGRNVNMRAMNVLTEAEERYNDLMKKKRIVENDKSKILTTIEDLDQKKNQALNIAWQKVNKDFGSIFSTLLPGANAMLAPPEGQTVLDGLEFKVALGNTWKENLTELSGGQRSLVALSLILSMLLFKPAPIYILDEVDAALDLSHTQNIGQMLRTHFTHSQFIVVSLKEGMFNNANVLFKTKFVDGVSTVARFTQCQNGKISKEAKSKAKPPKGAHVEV
UniProt Q9UMY4: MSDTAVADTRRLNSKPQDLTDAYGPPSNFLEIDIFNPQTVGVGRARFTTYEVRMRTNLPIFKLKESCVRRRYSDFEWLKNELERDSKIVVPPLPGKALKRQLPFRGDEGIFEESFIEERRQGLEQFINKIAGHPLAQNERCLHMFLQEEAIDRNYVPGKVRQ
UniProt Q15599: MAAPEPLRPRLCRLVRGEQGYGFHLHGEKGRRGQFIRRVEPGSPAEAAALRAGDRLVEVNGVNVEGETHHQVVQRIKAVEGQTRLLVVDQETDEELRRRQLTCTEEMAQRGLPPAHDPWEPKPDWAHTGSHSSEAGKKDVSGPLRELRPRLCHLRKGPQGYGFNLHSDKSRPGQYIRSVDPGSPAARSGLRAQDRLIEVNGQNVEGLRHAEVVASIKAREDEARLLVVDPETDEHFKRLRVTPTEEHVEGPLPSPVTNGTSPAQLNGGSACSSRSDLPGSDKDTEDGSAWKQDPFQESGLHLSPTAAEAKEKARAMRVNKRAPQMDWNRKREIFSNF
UniProt O00161: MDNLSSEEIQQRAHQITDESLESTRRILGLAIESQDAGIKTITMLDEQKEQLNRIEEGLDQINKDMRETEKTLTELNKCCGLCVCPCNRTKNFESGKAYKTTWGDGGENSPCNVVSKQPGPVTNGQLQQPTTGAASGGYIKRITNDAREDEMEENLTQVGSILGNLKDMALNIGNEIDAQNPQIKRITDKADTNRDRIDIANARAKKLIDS
UniProt O60906: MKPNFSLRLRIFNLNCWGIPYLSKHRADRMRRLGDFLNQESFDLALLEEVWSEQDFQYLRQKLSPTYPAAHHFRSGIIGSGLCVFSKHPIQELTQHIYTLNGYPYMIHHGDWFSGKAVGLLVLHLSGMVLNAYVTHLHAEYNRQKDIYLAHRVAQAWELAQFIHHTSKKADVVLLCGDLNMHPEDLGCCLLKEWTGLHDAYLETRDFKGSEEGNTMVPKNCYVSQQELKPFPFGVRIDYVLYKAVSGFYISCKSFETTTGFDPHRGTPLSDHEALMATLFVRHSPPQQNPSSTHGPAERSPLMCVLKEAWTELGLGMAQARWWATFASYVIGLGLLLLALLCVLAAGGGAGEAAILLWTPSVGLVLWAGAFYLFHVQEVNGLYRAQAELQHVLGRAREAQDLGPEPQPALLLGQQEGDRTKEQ

Assays:
Assay in all cases: log2 fold change, soluble protein after heating vs DMSO (PISA); higher = thermal stabilisation; K562 cells, 10 uM, 30 min; active = over 0.2 and 3.5 SD of the protein, either way, in both replicates (recomputed)
[1] = compound: CC1=C(C=C(C=C1)NC(=O)C2=CC(=CC=C2)C(C)(C)C#N)NC3=CC4=C(C=C3)N=CN(C4=O)C
How it was run: (§1)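 K562 cells at 2×10^6 cells/mL were given 10 μM compound for 30 min. Aliquots then went through 3 min of heating across 48°C-58°C, were pooled, and were extracted in PBS with 0.5% NP-40 at 4°C, and the supernatant after 21,000xg for 90 min was quantified by TMTpro 16plex LC-MS/MS with channel sums equalised. Thermal stability relative to control samples, from duplicates, is given as log2 fold change.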

[2] = compound: CC1=C(C=C(C=C1)NC(=O)C2=CC(=CC=C2)N(C)C)NC(=O)C3=CC=C(C=C3)O
How it was run: as §1

[3] = compound: CC1=CC=C(C=C1)SC2=C3C=C(SC3=CN=C2)C(=O)N
How it was run: as §1

[4] = compound: CC1=NC(=CC=C1)C2=C(N=C(N2)C(C)(C)C)C3=CC4=NC=CN=C4C=C3
How it was run: as §1

Nexturastat A = compound: CCCCN(Cc1ccc(C(=O)NO)cc1)C(=O)Nc1ccccc1 [Nexturastat A]
How it was run: as §1

vemurafenib = compound: CCCS(=O)(=O)Nc1ccc(F)c(C(=O)c2c[nH]c3ncc(-c4ccc(Cl)cc4)cc23)c1F [vemurafenib]
How it was run: as §1

[5] = compound: CCCS(=O)(=O)Nc1ccc(F)c(C(=O)c2c[nH]c3ncc(Cl)cc23)c1F
How it was run: as §1

[6] = compound: CCCc1cc(C)[nH]c(=O)c1CNC(=O)c1cc(-c2ccnc(N3CCN(C)CC3)c2)cc2c1cnn2C(C)C
How it was run: as §1

givinostat = compound: CCN(CC)Cc1ccc2cc(COC(=O)Nc3ccc(C(=O)NO)cc3)ccc2c1 [givinostat]
How it was run: as §1

barasertib = compound: CCN(CCCOc1ccc2c(Nc3cc(CC(=O)Nc4cccc(F)c4)[nH]n3)ncnc2c1)CCOP(=O)(O)O [barasertib]
How it was run: as §1

[7] = compound: CC[C@@H]1C(=O)N(C)c2cnc(Nc3ccc(C(=O)NC4CCN(C)CC4)cc3OC)nc2N1C1CCCC1
How it was run: as §1

volasertib = compound: CC[C@@H]1C(=O)N(C)c2cnc(Nc3ccc(C(=O)N[C@H]4CC[C@H](N5CCN(CC6CC6)CC5)CC4)cc3OC)nc2N1C(C)C [volasertib]
How it was run: as §1

[8] = compound: CC[C@H](C)N1C=C(C2=C(C=C(C=C21)C3=CN=C(C=C3)N4CCNCC4)C(=O)NCC5=C(C=C(NC5=O)C)C)C
How it was run: as §1

epoxomicin = compound: CC[C@H](C)[C@@H](C(=O)N[C@@H]([C@@H](C)O)C(=O)N[C@@H](CC(C)C)C(=O)[C@]1(CO1)C)NC(=O)[C@H]([C@@H](C)CC)N(C)C(=O)C [epoxomicin]
How it was run: as §1

[9] = compound: CCn1c(C(=O)N(C2CC2)C2CC2)cc2c3c(ncn3C)c(Nc3cc(C)n(C)n3)nc21
How it was run: as §1

[10] = compound: CCn1cc(-c2ccnc3[nH]c(-c4cccc(CN(C)C)c4)cc23)c(-c2ccc(NC(=O)N(C)C)cc2)n1
How it was run: as §1

[11] = compound: CN(C)CC(=O)Nc1ccc2[nH]c(=O)c3ccccc3c2c1
How it was run: as §1

rosiglitazone = compound: CN(CCOC1=CC=C(C=C1)C[C@H]2C(=O)NC(=O)S2)C3=CC=CC=N3 (racemic) [rosiglitazone]
How it was run: as §1

[12] = compound: CN1C2=C(C3=C1C(=O)N(N=C3)CC4=CC(=CC=C4)N)SC(=C2)S(=O)C
How it was run: as §1

[13] = compound: CN1CCC(CNc2ccc3ncc(-c4cccc(OC(F)(F)F)c4)n3n2)CC1
How it was run: as §1

Measured: log2 fold change

SNRPA1 (UniProt P09661)
inactive: [1] 0.071 | [2] -0.002 | [3] -0.006 | [4] 0.004 | Nexturastat A -0.018 | vemurafenib -0.001 | [5] -0.024 | [6] -0.004 | givinostat -0.044 | barasertib -0.048 | [7] 0.095 | volasertib 0.187 | [8] -0.052 | epoxomicin -0.049 | [9] 0.034 | [10] 0.099 | [11] -0.058 | rosiglitazone -0.015 | [12] -0.013 | [13] 0.097

SMC1B isoform 3 (UniProt Q8NDV3)
inactive: [1] -0.031 | [2] 0.008 | [3] -0.017 | [4] -0.042 | Nexturastat A 0.069 | vemurafenib 0.012 | [5] 0.078 | [6] -0.073 | givinostat 0.084 | barasertib -0.086 | [7] -0.126 | volasertib -0.144 | [8] -0.069 | epoxomicin -0.101 | [9] 0 | [10] 0.166 | [11] -0.022 | rosiglitazone -0.227 | [12] 0.039 | [13] -0.059

SNCA (UniProt P37840)
inactive: [1] -0.031 | [2] 0.05 | [3] 0.037 | [4] -0.027 | Nexturastat A -0.046 | vemurafenib -0.026 | [5] -0.042 | [6] -0.019 | givinostat 0.025 | barasertib -0.013 | [7] 0.038 | volasertib 0.043 | [8] -0.034 | epoxomicin -0.025 | [9] 0.038 | [10] -0.026 | [11] -0.003 | rosiglitazone -0.019 | [12] -0.038 | [13] -0.049

SNX1 (UniProt Q13596)
inactive: [1] -0.014 | [2] -0.001 | [3] -0.001 | [4] 0.042 | Nexturastat A -0.025 | vemurafenib 0.002 | [5] 0.083 | [6] -0.014 | givinostat 0.054 | barasertib 0.037 | [7] -0.135 | volasertib -0.113 | [8] 0.096 | epoxomicin 0.037 | [10] -0.107 | [11] 0.003 | [12] -0.029
active: [13] -0.605

SMC6 isoform 2 (UniProt Q96SB8)
inactive: [1] -0.002 | [2] 0.023 | [3] -0.013 | [4] -0.053 | Nexturastat A -0.009 | vemurafenib 0.022 | [5] -0.071 | [6] -0.035 | givinostat 0.016 | barasertib -0.022 | [7] 0.106 | volasertib 0.138 | [8] 0.02 | epoxomicin 0.007 | [9] -0.027 | [10] 0 | [11] 0.002 | rosiglitazone 0.025 | [12] 0.038 | [13] 0.117

SMIM8 (UniProt Q96KF7)
inactive: [1] 0.026 | [2] -0.041 | [3] 0.034 | [4] 0.108 | Nexturastat A -0.092 | vemurafenib -0.007 | [5] -0.02 | [6] -0.117 | givinostat -0.067 | barasertib 0 | [7] 0.076 | volasertib 0.013 | [8] -0.037 | epoxomicin 0.022 | [9] -0.032 | [10] -0.055 | [11] -0.049 | rosiglitazone 0.021 | [12] 0.01 | [13] 0

SLMAP (UniProt Q14BN4)
inactive: [1] -0.088 | [2] -0.026 | [3] -0.076 | [4] -0.039 | Nexturastat A 0.123 | vemurafenib -0.014 | [5] -0.018 | [6] 0.025 | givinostat 0.084 | barasertib 0.055 | [7] 0.035 | volasertib -0.123 | [8] -0.003 | epoxomicin -0.002 | [9] -0.106 | [10] -0.002 | [11] 0.02 | rosiglitazone -0.05 | [12] 0.103 | [13] 0.015

Two records picked at random from those above, as already listed:
SNX1 (UniProt Q13596)
inactive: [1] -0.014 | [2] -0.001 | [3] -0.001 | [4] 0.042 | Nexturastat A -0.025 | vemurafenib 0.002 | [5] 0.083 | [6] -0.014 | givinostat 0.054 | barasertib 0.037 | [7] -0.135 | volasertib -0.113 | [8] 0.096 | epoxomicin 0.037 | [10] -0.107 | [11] 0.003 | [12] -0.029
active: [13] -0.605

SLMAP (UniProt Q14BN4)
inactive: [1] -0.088 | [2] -0.026 | [3] -0.076 | [4] -0.039 | Nexturastat A 0.123 | vemurafenib -0.014 | [5] -0.018 | [6] 0.025 | givinostat 0.084 | barasertib 0.055 | [7] 0.035 | volasertib -0.123 | [8] -0.003 | epoxomicin -0.002 | [9] -0.106 | [10] -0.002 | [11] 0.02 | rosiglitazone -0.05 | [12] 0.103 | [13] 0.015

(further entries)

SNRPD3 (UniProt P62318)
inactive: [1] -0.03 | [2] 0.031 | [3] -0.048 | [4] -0.079 | Nexturastat A -0.023 | vemurafenib -0.015 | [5] -0.102 | [6] -0.126 | givinostat 0 | barasertib -0.039 | [7] 0.194 | volasertib 0.134 | [8] -0.058 | epoxomicin -0.037 | [10] 0.058 | [11] -0.07 | [12] 0.001 | [13] 0.198

SMARCC2 (UniProt Q8TAQ2)
inactive: [1] -0.113 | [2] -0.066 | [3] -0.031 | [4] -0.025 | Nexturastat A 0.031 | vemurafenib 0.059 | [5] 0.098 | [6] 0.058 | givinostat 0.182 | barasertib 0.065 | [7] 0.02 | volasertib -0.078 | [8] 0.147 | epoxomicin 0.001 | [9] -0.047 | [10] -0.048 | [11] 0.065 | rosiglitazone 0.061 | [12] 0.116 | [13] 0.071

SNRPF (UniProt P62306)
inactive: [1] -0.018 | [2] -0.069 | [3] -0.012 | [4] 0.054 | Nexturastat A 0.226 | vemurafenib 0.047 | [5] 0.017 | [6] -0.097 | givinostat 0.033 | barasertib -0.022 | [7] 0.08 | volasertib 0.022 | [8] -0.022 | epoxomicin 0.071 | [9] 0.022 | [10] -0.007 | [11] -0.075 | rosiglitazone -0.054 | [12] 0.059 | [13] 0.094

SNW1 (UniProt Q13573)
inactive: [1] -0.035 | [2] 0.041 | [3] -0.017 | [4] 0 | Nexturastat A 0.074 | vemurafenib -0.04 | [5] -0.017 | [6] -0.045 | givinostat -0.041 | barasertib -0.02 | [7] 0.094 | volasertib 0.078 | [8] -0.052 | epoxomicin -0.012 | [10] 0.044 | [11] -0.027 | [12] 0 | [13] 0.078

SMC2 (UniProt O95347)
inactive: [1] -0.007 | [2] -0.042 | [3] -0.018 | [4] 0.003 | Nexturastat A 0.029 | vemurafenib 0.05 | [5] 0.055 | [6] 0.04 | givinostat 0.018 | barasertib 0.018 | [7] -0.057 | volasertib -0.183 | [8] 0.064 | epoxomicin 0.022 | [9] -0.023 | [10] -0.038 | [11] 0.003 | rosiglitazone 0.021 | [12] -0.008 | [13] -0.053

SNX12 isoform 1 (UniProt Q9UMY4)
inactive: [1] -0.021 | [2] -0.006 | [3] 0.032 | [4] 0.024 | Nexturastat A -0.082 | vemurafenib 0.054 | [5] 0.059 | [6] 0.008 | givinostat 0.004 | barasertib 0.062 | [7] -0.124 | [8] 0.069 | epoxomicin 0.028 | [10] 0.043 | [11] -0.012 | [12] 0.045
active: volasertib -0.252 | [13] -0.275

SLC9A3R2 (UniProt Q15599)
inactive: [1] -0.018 | [2] 0.016 | [3] 0 | [4] -0.016 | Nexturastat A -0.015 | vemurafenib -0.047 | [5] 0.052 | [6] -0.042 | givinostat -0.016 | barasertib -0.022 | [7] 0.014 | volasertib -0.016 | [8] -0.022 | epoxomicin -0.001 | [9] -0.013 | [10] -0.04 | [11] -0.047 | rosiglitazone 0.006 | [12] -0.008 | [13] 0.011

SNAP23 (UniProt O00161)
inactive: [1] -0.007 | [2] 0.017 | [3] -0.012 | [4] 0.017 | Nexturastat A -0.061 | vemurafenib 0.025 | [5] -0.023 | [6] -0.039 | givinostat -0.045 | barasertib 0.003 | [7] 0.048 | volasertib 0.095 | [8] -0.031 | epoxomicin 0.005 | [9] 0.067 | [10] 0.025 | [11] -0.028 | rosiglitazone 0.002 | [12] -0.001 | [13] 0.032

SMPD2 (UniProt O60906)
inactive: [1] -0.052 | [2] -0.019 | [3] 0.04 | [4] -0.112 | Nexturastat A 0.063 | vemurafenib 0.042 | [5] -0.039 | [6] -0.058 | givinostat 0.033 | barasertib 0.014 | [7] 0.128 | volasertib 0.261 | [8] 0.105 | epoxomicin -0.052 | [9] 0.045 | [10] -0.053 | [11] -0.08 | rosiglitazone 0.075 | [12] -0.07 | [13] 0.043
